Data on one substance can be found in paper PMC3493543.

These are yes or no findings as the source states them, for the method shown. Some entries that bind do so weakly or less than the wild type. Tags and fused reporters may be left off the sequences shown.

Common to all, as to test: two-hybrid; Matchmaker system; co-transformation of pGBKT7 bait and pGADT7 prey into S. cerevisiae AH109; double transformants from DDO plates re-spotted on QDO plates with x-α-galactosidase (HIS3, ADE2, MEL1 markers)
Test [1] addresses T1, GTF2IRD1 C-terminal truncation TR2 (aa 1-909) fused to the GAL4 DNA-binding domain (human) (UniProt Q9UHL9).
T1 sequence: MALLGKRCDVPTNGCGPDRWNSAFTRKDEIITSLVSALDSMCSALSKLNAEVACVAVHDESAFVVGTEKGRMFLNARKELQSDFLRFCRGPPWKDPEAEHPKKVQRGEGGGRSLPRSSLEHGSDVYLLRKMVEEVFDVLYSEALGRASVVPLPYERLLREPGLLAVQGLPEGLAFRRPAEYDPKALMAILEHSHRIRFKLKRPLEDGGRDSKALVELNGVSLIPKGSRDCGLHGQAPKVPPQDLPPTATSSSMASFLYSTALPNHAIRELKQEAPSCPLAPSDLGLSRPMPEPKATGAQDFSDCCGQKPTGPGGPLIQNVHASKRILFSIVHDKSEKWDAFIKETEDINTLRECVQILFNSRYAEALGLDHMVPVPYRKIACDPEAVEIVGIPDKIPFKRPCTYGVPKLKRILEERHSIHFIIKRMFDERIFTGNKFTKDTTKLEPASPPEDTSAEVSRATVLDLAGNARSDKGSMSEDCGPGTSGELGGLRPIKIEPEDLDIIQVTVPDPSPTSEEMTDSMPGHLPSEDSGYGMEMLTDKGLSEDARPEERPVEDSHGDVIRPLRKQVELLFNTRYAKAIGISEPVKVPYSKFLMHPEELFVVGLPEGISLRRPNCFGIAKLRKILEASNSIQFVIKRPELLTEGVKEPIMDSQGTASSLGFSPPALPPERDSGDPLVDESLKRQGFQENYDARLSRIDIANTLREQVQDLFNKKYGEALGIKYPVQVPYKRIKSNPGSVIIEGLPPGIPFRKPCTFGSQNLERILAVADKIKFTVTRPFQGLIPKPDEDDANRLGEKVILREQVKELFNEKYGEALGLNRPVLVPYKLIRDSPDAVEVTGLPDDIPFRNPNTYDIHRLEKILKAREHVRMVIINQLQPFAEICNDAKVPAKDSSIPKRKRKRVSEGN

Test [2] has as its target T2, GTF2IRD1 C-terminal truncation TR3 (aa 1-787) fused to the GAL4 DNA-binding domain (human) (UniProt Q9UHL9).
T2 sequence: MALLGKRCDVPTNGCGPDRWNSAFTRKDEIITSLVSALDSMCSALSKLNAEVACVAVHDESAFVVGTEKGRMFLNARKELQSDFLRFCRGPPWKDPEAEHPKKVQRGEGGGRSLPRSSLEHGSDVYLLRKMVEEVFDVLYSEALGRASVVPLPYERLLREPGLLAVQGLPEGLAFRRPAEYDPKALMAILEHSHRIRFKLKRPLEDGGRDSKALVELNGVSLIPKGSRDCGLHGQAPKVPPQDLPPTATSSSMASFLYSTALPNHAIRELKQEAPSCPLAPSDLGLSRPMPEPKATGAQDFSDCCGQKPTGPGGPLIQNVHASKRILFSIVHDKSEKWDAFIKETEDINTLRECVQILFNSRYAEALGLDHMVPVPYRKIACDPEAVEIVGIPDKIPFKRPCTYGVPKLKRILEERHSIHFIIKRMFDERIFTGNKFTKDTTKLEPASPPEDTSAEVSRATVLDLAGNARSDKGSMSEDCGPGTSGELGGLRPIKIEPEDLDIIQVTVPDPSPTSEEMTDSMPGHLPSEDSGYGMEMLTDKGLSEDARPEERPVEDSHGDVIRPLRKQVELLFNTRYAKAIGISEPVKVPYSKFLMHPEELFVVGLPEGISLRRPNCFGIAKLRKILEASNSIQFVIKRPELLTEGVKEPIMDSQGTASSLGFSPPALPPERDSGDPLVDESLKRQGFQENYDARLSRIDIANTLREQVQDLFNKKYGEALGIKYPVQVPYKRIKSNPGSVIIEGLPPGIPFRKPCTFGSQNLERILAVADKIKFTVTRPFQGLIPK

Test [3] addresses T3, full-length human GTF2IRD1 1α1 isoform fused to the GAL4 DNA-binding domain (pGBKT7-GTF2IRD1) (human) (UniProt Q9UHL9).
T3 sequence: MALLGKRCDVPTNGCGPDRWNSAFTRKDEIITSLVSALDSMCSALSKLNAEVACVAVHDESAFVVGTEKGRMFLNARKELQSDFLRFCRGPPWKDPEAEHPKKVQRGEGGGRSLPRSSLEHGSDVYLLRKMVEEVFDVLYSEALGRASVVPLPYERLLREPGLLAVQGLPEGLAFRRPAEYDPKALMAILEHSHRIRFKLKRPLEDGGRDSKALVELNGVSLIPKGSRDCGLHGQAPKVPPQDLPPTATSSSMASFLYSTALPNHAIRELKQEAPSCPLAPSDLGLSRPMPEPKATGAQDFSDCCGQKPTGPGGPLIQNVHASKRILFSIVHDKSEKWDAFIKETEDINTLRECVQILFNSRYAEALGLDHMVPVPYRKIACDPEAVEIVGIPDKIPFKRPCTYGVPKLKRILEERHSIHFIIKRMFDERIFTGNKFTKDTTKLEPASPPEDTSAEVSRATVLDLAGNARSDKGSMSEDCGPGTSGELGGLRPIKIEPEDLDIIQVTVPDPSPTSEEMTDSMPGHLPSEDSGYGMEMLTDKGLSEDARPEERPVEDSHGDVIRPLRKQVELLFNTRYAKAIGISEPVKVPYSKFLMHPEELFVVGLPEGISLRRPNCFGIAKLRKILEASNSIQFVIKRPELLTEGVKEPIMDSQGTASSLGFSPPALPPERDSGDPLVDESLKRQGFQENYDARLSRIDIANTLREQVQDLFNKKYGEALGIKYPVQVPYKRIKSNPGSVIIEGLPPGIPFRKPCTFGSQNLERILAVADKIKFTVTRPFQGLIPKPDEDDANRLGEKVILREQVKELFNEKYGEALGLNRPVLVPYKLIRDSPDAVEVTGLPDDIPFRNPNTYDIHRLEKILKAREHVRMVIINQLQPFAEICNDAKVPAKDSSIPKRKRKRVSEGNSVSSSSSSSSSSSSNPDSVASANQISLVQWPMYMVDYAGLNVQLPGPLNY

In the case of “PIASxβ fused to the GAL4 activation domain (pGADT7-PIASxβ) (from UniProt Q8C5D8-1 1-621) (enzyme)”, the binding entry is on record as “no binding” in test [1], “no binding” in test [2] and “binds” in test [3].
